Data as given in ChEMBL document CHEMBL1148881 (Bioorg Med Chem Lett, 2007).

The compounds below were run against T1, Peroxisome proliferator-activated receptor gamma (Homo sapiens, UniProt P37231).
T1 sequence (P37231 whole entry): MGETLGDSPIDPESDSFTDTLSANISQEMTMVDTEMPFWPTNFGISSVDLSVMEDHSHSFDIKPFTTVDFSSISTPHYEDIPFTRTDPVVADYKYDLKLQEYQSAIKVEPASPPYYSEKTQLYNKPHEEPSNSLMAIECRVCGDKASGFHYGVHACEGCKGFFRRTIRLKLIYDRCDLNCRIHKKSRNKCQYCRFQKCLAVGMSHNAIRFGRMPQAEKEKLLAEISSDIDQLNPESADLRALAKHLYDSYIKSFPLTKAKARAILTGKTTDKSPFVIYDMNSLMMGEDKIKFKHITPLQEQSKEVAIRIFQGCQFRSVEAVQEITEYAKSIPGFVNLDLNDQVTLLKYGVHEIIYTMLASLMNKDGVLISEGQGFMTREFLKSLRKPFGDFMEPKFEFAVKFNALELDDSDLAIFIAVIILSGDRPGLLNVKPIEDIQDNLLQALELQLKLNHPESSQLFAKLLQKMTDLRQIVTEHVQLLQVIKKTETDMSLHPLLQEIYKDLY

Point of comparison: `O=C(O)COc1ccc(SCc2ccc(OCc3ccccc3)cc2)c2c1CCC2`, IC50 7.57 µM. Against it:
- O=C(O)COc1ccc(SCc2ccc(OCc3ccc(F)cc3C(F)(F)F)cc2)c2c1CCC2 — not separable, < 11.1 µM
- O=C(O)COc1ccc(SCc2cc(F)ccc2OCc2ccc(C(F)(F)F)cc2)c2c1CCC2 — higher, > 10 µM
- O=C(O)COc1ccc(SCc2ccc(OCc3ccc(OC(F)(F)F)cc3)cc2)c2c1CCC2 — not separable, < 11.1 µM
- Cc1cc(SCc2ccc(OCc3ccc(C(F)(F)F)cc3)cc2)ccc1OCC(=O)O — higher, > 11 µM
- O=C(O)COc1ccc(SCc2ccccc2OCc2ccc(C(F)(F)F)cc2)c2c1CCC2 — higher, > 10 µM
- O=C(O)COc1ccc(SCc2ccc(OCc3ccc(C(F)(F)F)cc3)cc2)c2c1CCC2 — higher, > 10 µM
